From paper PMC4349446
Results are given in words; binding and its absence hold for the method and conditions named. Binding calls can cover weak binding; strength is not graded here.

By UniProt entry, the sequences of proteins in these tests, tags left out. Where a name states a change or a piece, a line headed by the entry shows the natural chain unless it says otherwise.
UniProt P16671: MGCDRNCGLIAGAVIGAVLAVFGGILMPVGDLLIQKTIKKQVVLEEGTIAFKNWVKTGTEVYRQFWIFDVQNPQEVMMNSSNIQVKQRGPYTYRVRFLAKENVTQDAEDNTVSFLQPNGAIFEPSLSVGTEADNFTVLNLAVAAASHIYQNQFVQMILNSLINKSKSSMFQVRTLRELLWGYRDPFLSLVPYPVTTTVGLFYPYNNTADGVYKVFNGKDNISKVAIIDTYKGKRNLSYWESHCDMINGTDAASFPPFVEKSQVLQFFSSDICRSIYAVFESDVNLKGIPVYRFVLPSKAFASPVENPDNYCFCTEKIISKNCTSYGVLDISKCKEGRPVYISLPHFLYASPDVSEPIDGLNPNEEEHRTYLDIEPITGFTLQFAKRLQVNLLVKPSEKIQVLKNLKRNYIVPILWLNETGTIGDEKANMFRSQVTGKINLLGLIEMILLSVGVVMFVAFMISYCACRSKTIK

Biological target: Recombinant CD36 (hexa-histidine tag at C-terminal) (UniProt P16671)
Experiment: SPR; CD36 immobilised on a GLM sensor chip (ProteON XPR36); peptide 10 μM in PBS-Tween20, 50 μl/min, association 0–120 sec; both purified

## DCKWKEQMTTNIMWAASPFASYAKLQLKYFKGQLGLRGLGSEDK [scrambled 44 mer peptide]
  binding: binds
